The list shows a part of the results. The main result of the screen is listed elsewhere. These columns were measured beside it and carry no call. Most of these compounds were active or inconclusive in the main read-out, so they are no random draw. Words in brackets tell the shape of the fitted curve; partial curves, single points and poor fits give uncertain potencies.

The experiment can be described thus: Cell signaling CRE-BLA (Fsk stim). Particulars: CHO CRE-bla reporter (cAMP response element driving beta-lactamase), forskolin EC10, beta-lactamase ratio; measured here: 460 nm blue channel. Summed up: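 Cells were plated overnight at 37 °C, exposed to compound titrations plus EC10 NKH 477 for 3 h, then given CCF4 dye for 2 h at room temperature. Blue/green (460/530 nm) ratio was converted to %Activity and AC50 values calculated.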
Broadly, the AC50 is the midpoint of the concentration-response curve, whichever way the signal moves. With `O=C(OCC(=O)N1CCCC1)c1ccccc1OCc1ccccc1`, the half-maximal activity concentration (AC50) is 10 µM [falling, partial curve].
In the case of `CCC(=O)N1CCN(C(=O)CC)C1c1ccccc1`, the AC50 was 0.501 µM [falling, full curve, poor fit].
As for `CN(C)c1ccc(C(=O)C(O)c2ccc(C(C)(C)C)cc2)cc1` (configuration not stated), the figure is 15.8 µM [rising, partial curve]; as for `Cc1ccc(Cn2nnc3c(=O)[nH]c(C4CCN(S(=O)(=O)c5ccc(F)cc5)CC4)nc32)cc1`, 10 µM [rising, single point].
As for `CS(=O)(=O)N1CCCC(C(=O)NCc2ccccn2)C1` (configuration not stated), the figure is 1 µM [rising, full curve, poor fit]; as for `COCCNc1cc(C)nc2c3c(C)cc(C)nc3nn12`, 10 µM [rising, partial curve].
As for `CCOC(=O)N1CCC(NC(=O)Cn2ncc3c4ccccc4n(C)c3c2=O)CC1`, the figure is 0.501 µM [falling, full curve].
Consider `CCNc1nc(C)c2cc(Br)c(=O)n(CC)c2n1`, for which the concentration at half-maximal activity (AC50) was 0.794 µM [rising, full curve].
With `CCCCCCCCCCCCCCCCOC[C@@H](COCC(F)(F)F)OP(=O)(O)OCO`, the AC50 is 25.1 µM [falling, partial curve].
In the case of `CCOc1ccc(-n2c(SCC(=O)Nc3cc(C)on3)nc3c([nH]c4ccccc43)c2=O)cc1`, the AC50 was 1.26 µM [rising, full curve].
With `Cc1nn(-c2ccccc2)c2sc(C(=O)N(Cc3ccco3)C(C)C(=O)NC(C)(C)C)cc12` (configuration not stated), the AC50 was 1.58 µM [rising, partial curve].
For the compound `CCc1cccc2nc3c(c([Si](CC)(CC)CC)c12)Cn1c-3cccc1=O`, the AC50 was 10 µM [rising, partial curve].
Consider `O=S1(=O)c2cccc3cccc(c23)N1Cc1ccc(-c2nnco2)cc1`, for which the AC50 is 12.6 µM [rising, single point].
On to `COc1ccc(N2CCN(Cc3nc4c(c(=O)n(C)c(=O)n4C)n3Cc3ccccc3C)CC2)cc1`, for which the AC50 is 10 µM [rising, partial curve].
As for `CCOC(=O)c1c(NC(=O)CCC(=O)NCc2ccco2)sc2c1CCCC2`, the figure is 20 µM [rising, single point]; as for `O=C(NC1CC1)C1CCCN(C(=O)Nc2ccc(F)cc2)C1` (configuration not stated), 25.1 µM [falling, single point]; as for `COc1ccc2c(C=Nc3c(C)n(C)n(-c4ccccc4)c3=O)c(O)n(Cc3ccco3)c(=O)c2c1`, 2.51 µM [rising, full curve].
In the case of `COCCn1c(C)cc(C(=O)COC(=O)c2c(C)nn(Cc3ccccc3)c2C)c1C` it was 0.158 µM [falling, partial curve]; in that of `COc1ccc(C(=O)Cn2nnc(-c3ccccc3-n3cnnn3)n2)cc1`, 1.58 µM [falling, partial curve, poor fit].
Regarding `C=CCOc1nc(N(C)C)nc(N(C)C)n1`, the AC50 was 12.6 µM [rising, single point].
In the case of `O=C(NC1CCCCCC1)c1cccs1` it was 0.00398 µM [falling, full curve]; in that of `CCOc1ccc(N(CC(=O)N2CCN(c3ccccc3)CC2)S(=O)(=O)c2c(C)noc2C)cc1`, 12.6 µM [falling, single point]; in that of `Cc1ccc(-n2c(SCC(=O)Nc3ccc4cn[nH]c4c3)nnc2-c2ccco2)cc1`, 25.1 µM [rising, single point].
As for `Fc1cccc(Cl)c1-c1nnc2ccc(N3CCOCC3)nn12`, the figure is 3.98 µM [rising, partial curve]; as for `c1ccc(-c2csc3ncn4cnnc4c23)cc1`, 1.58 µM [rising, full curve, poor fit]; as for `Cc1cc(NC(=O)CCS(=O)(=O)c2nc(-c3ccccc3)cc(C(F)(F)F)n2)no1`, 10 µM [falling, partial curve].
As for `O=C(NCc1ccco1)c1cccn2c(=O)c3sccc3nc12`, the AC50 is 12.6 µM [rising, partial curve, poor fit].
Regarding `Cc1noc(NS(=O)(=O)c2ccc(NC(=O)CCn3c(=O)oc4ccccc43)cc2)c1C`, the AC50 was 0.794 µM [falling, full curve].
Regarding `CCC(=O)N1c2ccc(S(=O)(=O)CCC(=O)Nc3nccs3)cc2CC1C` (configuration not stated), the AC50 is 0.1 µM [falling, full curve, poor fit].
In the case of `Cn1c(=O)[nH]c(=O)c2c1nc(NCCCO)n2CCCc1ccccc1` it was 12.6 µM [rising, single point]; in that of `COc1ccc(-c2cc(C(=O)Nc3ccc(C)cc3)no2)cc1`, 0.126 µM [falling, full curve, poor fit]; in that of `Cc1noc(NS(=O)(=O)c2ccc(NC(=O)CCC3CCCCC3)cc2)c1C`, 25.1 µM [falling, single point].
In the case of `N#CC1=C(SCC(=O)NC23CC4CC(CC(C4)C2)C3)NC(=O)C(C#N)C12CCCCC2` (configuration not stated) it was 25.1 µM [falling, single point]; in that of `CN1/C(=C\C(=O)c2cccs2)Sc2ccccc21`, 10 µM [rising, partial curve]; in that of `Nc1ccnc(C(F)(F)F)c1C(=O)c1ccccc1`, 0.0316 µM [falling, full curve, poor fit].
Regarding `Cc1ccc2nc(-c3ccc(SCC(=O)Nc4cc(C)on4)nc3)[nH]c2c1`, the AC50 was 12.6 µM [rising, single point].
Regarding `CC(C)c1cc(C(=O)NCc2cccnc2)no1`, the AC50 is 0.501 µM [falling, full curve, poor fit].
As for `CC(C)(C)c1cc(/C=C(\C#N)C(N)=S)cc(C(C)(C)C)c1O`, the figure is 5.01 µM [falling, full curve].
As for `Cc1cc(-c2ccccc2)nc2cc(C(N)=O)nn12`, the figure is 25.1 µM [rising, single point].
As for `CCc1cccc(NC(=O)CN2C(=O)NC3(CCCCCCC3)C2=O)c1`, the figure is 2.51 µM [rising, full curve, poor fit]; as for `Clc1ccc(OCc2nn3c(C4CCCCC4)nnc3s2)c(Cl)c1`, 0.631 µM [rising, full curve, poor fit]; as for `O=C(C1CCN(S(=O)(=O)N2CCC3(CC2)OCCO3)CC1)N1CCOCC1`, 0.0631 µM [falling, partial curve, poor fit].
For the compound `COc1ccccc1OCCSc1nc2ccccc2c(=O)[nH]1`, the AC50 was 10 µM [rising, partial curve].
In the case of `CCn1cc(C(=O)NC2CCCCC2C)c(=O)c2ccc(C)nc21` (configuration not stated), the AC50 is 3.98 µM [rising, full curve].
As for `CCOc1ccccc1NC(=O)CCN1CCN(S(=O)(=O)c2ccc(OC)cc2)CC1`, the figure is 0.501 µM [rising, full curve, poor fit].
For the compound `COc1ccccc1C(=O)Nc1nc2ccc(S(C)(=O)=O)cc2s1`, the AC50 is 3.98 µM [rising, partial curve].
In the case of `Cn1cc(-c2nc3cnc(N4CCOCC4)nc3n(CCC#N)c2=O)c2ccccc21` it was 6.31 µM [rising, partial curve].
As for `Cc1cc2nnc(SCC(=O)NCc3ccco3)n2c2ccccc12`, the figure is 12.6 µM [rising, partial curve]; as for `O=C(NCCN1CCN(C(=O)NC2CCCCC2)CC1)NC1CCCCC1`, 5.01 µM [falling, partial curve].
For `COCc1cc(=O)n2[nH]c(C)cc2n1`, the concentration at half-maximal activity (AC50) was 0.00316 µM [falling, full curve, poor fit].
As for `Cc1cc2nnc(SC3CCOC3=O)n2c2ccccc12` (configuration not stated), the figure is 10 µM [rising, single point].
In the case of `CC(O)CCc1nc2ccc(C(=O)O)cc2[nH]1` (configuration not stated) it was 25.1 µM [rising, single point].
In the case of `CC(C)Oc1cccc(C(=O)Nc2ccccc2N2CCOCC2)c1` it was 12.6 µM [rising, partial curve]; in that of `Cc1nc2nc(Cc3ccccc3)nn2c(C)c1Cl`, 7.94 µM [rising, partial curve].
With `C[C@H](NC(=O)/C(C#N)=C/c1ccc(O)c(O)c1)c1ccccc1`, the half-maximal activity concentration (AC50) is 31.6 µM [rising, partial curve].
As for `Cc1cnc(CNc2nc(-c3cccc(NS(C)(=O)=O)c3)nc3ccccc23)cn1`, the AC50 was 12.6 µM [rising, partial curve].
In the case of `CC1SC(=NC(=O)c2ccco2)NC1=O` (configuration not stated) it was 0.631 µM [rising, single point].
As for `CCc1ccc2[nH]c(=O)c(CN(CCN3CCOCC3)C(=O)Nc3ccccc3F)cc2c1`, the figure is 10 µM [rising, partial curve]; as for `COc1ccc(NC(=O)Cc2cccs2)c(OC)c1`, 0.794 µM [falling, full curve, poor fit].
In the case of `COC(=O)c1ccccc1NC(=O)Cn1cnc2cc(C)c(C)cc21` it was 0.00316 µM [falling, full curve, poor fit]; in that of `Cc1cc(NC(=O)CSc2nnc(C3CC3)n2C)no1`, 20 µM [falling, single point]; in that of `N#CCSc1nc2c(c(C3CC=CCC3)c1C#N)CCC2` (configuration not stated), 5.01 µM [rising, full curve, poor fit].
With `Cn1cc(-c2nc3cnc(OCc4ccccc4)nc3n(CCC#N)c2=O)c2ccccc21`, the AC50 was 10 µM [rising, partial curve].
As for `COc1ccc(-c2coc3cc(O)cc(O)c3c2=O)cc1`, the AC50 is 0.158 µM [rising, full curve, poor fit].
As for `CCOC(=O)N1CCN(C(=O)c2ccc(NC(=O)c3ccc(C)cc3)cc2)CC1`, the figure is 5.01 µM [falling, partial curve]; as for `CCC(=O)/C=C1\Sc2ccc(OC)cc2N1CC`, 0.398 µM [rising, full curve, poor fit]; as for `C=CCNc1ncnc2c1cnn2-c1ccc(Cl)cc1`, 5.01 µM [rising, partial curve].
